Measured values published in publication PMC9596381.

Sequences of proteins named here, by UniProt entry; tags and fusion partners are left off. A change or cut given only in a name is not applied to a line headed by its entry. Residues count along the entry.
UniProt Q8K1S4: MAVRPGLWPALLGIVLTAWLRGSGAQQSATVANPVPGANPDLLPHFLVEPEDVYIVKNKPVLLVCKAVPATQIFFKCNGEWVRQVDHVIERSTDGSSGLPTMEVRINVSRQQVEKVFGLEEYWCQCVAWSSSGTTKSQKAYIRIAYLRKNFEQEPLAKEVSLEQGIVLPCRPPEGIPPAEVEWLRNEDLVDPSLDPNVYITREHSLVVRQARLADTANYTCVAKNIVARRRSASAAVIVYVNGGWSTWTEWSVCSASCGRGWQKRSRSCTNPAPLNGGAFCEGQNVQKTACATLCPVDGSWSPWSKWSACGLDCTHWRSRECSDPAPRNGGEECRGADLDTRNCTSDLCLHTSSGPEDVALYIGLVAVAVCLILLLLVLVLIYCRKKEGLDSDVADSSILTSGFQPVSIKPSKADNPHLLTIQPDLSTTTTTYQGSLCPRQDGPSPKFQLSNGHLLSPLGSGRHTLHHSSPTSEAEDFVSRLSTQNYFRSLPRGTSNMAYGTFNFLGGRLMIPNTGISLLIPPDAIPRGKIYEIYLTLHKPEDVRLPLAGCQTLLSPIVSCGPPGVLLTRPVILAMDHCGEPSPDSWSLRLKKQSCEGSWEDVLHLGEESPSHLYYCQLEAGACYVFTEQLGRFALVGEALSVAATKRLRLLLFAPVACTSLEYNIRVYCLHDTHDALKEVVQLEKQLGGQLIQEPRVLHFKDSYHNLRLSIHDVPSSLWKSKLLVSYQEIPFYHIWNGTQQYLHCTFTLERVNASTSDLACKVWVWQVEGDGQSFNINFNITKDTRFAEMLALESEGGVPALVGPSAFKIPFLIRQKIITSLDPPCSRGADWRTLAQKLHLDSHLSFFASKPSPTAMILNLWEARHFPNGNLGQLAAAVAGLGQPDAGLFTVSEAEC
UniProt Q8K1S3: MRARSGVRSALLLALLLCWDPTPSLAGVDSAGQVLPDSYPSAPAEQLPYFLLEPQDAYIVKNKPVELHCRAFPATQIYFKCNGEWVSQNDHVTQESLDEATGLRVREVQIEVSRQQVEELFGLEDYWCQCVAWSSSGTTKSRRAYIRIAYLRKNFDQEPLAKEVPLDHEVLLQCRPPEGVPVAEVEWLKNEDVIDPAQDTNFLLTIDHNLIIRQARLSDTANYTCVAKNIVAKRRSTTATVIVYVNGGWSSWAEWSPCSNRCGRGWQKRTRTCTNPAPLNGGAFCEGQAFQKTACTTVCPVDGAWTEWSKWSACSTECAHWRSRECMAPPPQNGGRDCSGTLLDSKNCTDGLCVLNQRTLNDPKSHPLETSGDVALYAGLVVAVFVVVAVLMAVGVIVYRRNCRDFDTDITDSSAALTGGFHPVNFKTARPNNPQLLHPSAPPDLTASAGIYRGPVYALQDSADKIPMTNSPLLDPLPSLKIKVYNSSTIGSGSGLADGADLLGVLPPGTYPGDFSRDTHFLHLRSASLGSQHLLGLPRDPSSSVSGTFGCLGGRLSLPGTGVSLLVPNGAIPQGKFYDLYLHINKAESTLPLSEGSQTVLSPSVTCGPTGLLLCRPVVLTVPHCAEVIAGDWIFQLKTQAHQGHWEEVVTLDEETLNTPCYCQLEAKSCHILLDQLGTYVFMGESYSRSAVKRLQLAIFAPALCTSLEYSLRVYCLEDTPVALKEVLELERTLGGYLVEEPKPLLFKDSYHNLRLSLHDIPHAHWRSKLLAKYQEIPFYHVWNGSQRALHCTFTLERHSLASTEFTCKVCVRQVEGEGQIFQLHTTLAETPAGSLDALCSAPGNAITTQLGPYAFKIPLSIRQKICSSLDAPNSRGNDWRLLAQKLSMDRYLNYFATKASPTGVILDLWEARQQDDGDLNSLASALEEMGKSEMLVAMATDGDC
UniProt O08747: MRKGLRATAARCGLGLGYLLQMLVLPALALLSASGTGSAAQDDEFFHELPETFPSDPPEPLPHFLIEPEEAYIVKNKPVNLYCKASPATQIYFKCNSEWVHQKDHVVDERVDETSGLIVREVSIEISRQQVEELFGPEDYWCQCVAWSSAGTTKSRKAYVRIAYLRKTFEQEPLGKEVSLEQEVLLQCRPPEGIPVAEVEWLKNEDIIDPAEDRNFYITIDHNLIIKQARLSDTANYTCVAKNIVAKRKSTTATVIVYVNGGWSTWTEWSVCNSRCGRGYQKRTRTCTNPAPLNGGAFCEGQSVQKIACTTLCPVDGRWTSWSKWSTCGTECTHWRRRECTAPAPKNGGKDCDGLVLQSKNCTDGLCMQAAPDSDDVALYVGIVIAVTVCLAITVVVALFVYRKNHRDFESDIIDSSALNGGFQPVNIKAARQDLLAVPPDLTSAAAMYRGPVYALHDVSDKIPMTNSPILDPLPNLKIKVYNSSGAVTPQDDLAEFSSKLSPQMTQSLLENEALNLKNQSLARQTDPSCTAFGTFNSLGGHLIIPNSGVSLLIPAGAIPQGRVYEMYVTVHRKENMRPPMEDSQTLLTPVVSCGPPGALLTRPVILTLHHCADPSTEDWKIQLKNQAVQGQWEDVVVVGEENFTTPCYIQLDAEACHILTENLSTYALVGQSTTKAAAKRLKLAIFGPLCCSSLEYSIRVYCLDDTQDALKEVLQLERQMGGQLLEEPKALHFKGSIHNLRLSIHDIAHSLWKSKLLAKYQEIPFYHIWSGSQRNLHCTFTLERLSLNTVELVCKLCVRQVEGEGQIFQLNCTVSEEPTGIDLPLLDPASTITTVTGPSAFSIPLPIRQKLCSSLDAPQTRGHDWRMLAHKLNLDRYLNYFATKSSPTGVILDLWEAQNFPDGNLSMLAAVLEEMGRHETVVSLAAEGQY
UniProt P51654, residues 32-483: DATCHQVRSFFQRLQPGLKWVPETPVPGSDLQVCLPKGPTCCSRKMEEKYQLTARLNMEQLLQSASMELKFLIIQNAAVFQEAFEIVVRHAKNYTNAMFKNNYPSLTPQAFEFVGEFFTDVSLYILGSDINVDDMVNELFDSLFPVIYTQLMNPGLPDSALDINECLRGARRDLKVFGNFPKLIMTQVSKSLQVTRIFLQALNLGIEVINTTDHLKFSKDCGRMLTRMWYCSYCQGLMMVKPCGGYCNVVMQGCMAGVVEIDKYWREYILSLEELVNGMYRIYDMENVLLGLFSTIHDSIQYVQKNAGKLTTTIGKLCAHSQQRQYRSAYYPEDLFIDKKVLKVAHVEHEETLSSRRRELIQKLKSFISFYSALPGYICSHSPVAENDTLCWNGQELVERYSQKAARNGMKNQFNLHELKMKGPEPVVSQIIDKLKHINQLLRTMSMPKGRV

How the values were obtained:
[1] = biological target: Unc5A^GU ectodomain mutant (mUnc5A^ectoGU) (mouse) (UniProt Q8K1S4); experiment: SPR; equilibrium binding at 25 C, Biacore T200; one partner biotinylated at a C-terminal Avi-tag on a streptavidin-coated CM5 chip; analyte in 2-fold dilution series; PBS or 20 mM Tris, 200 mM NaCl, 0.005% polysorbate 20, pH 7.5; apparent KD from a 1:1 model, indicative only; both purified
[2] = biological target: Unc5B^GU ectodomain mutant (mUnc5B^ectoGU) (mouse) (UniProt Q8K1S3); experiment: as above
[3] = biological target: Unc5C^GU ectodomain mutant (UniProt O08747); experiment: as above
[4] = biological target: Unc5^GU mutant expressed on cells (cell-based binding assay of Figure 3B) (UniProt Q8K1S3); experiment: cell-based binding assay (fluorescence microscopy); HEK293T cells expressing mVenus-tagged receptor; 0.5 ug purified His-tagged protein pre-clustered with anti-His, 60 min on ice; anti-mouse-Cy3; co-localisation area quantified; only the binder purified

Measured: binding

human glypican-3 core domain, residues 32-483 (hGPC3^core) (from UniProt P51654 32-483) (domain or fragment)
no binding: all assays above

No constants are given. Whether binding was seen depends on the method and setting.
